The values that follow come from article PMC6459484, “Synthetic surfactin analogues have improved anti-PEDV properties” (PLoS ONE, 2019).

Square brackets hold non-standard residues; d marks the D form. Peptide text beside a SMILES is read from it. * marks the point of attachment. Palmitoyl = CCCCCCCCCCCCCCCC(=O)*

In this data set the test system is PEDV CV777. Description: Plaque reduction assay (anti-PEDV activity). The format is cell-based, Porcine epidemic diarrhea virus. The following applies: fold of surfactin's SI. The procedure:
Cercopithecus aethiops kidney epithelial cells (Vero, ATCC, CCL-81) were cultured in high glucose DMEM (Gibco, US), supplemented with 10% fetal bovine serum (FBS, GIBCO), at 37 °C in a 5% CO2 humidified atmosphere. Cells were routinely seeded at a density of 2×10^5 /mL in plastic tissue culture flasks (25 cm^2 flasks, Corning, USA) and passaged every 3–4 days. PEDV CV777 was provided by the Jiangsu Academy of Agricultural Sciences (JAAS).
Vero cells were seeded at 2 × 10^5 cells/well in 24-well tissue culture plates and incubated 18–24 h at 37 °C until approximately 95% confluency was reached. 100 PFU of PEDV mixed with an equal volume of SLP in DMEM or DMEM alone were incubated 10 minutes at 37 °C, then added into the wells of the Vero cells and incubated 30 minutes at 4 °C. […] The data are representative of 3 biological replicates and each plaque assay was performed in triplicate and values are expressed as means ± the standard deviation. Curve fitting and EC50 were calculated with GraphPad Prism 6 using the log[inhibitor] vs. response equation.
The SLPs were tested for anti-PEDV activity using a plaque reduction assay. […] The adsorbed virus particles were then counted by plaque forming assays (Fig 2A). […]
Fig 2 Anti-PEDV activities of lipopeptides. […] After washing cells of unadsorbed virus, the remaining infectious particles was detected by plaque assay. […]
(In general: In a plaque reduction assay, fewer plaques than in the control indicate reduced infectivity or spread.)

With `CCCCCCCCCCCCCCCC(=O)N[C@@H](CCC(=O)O)C(=O)N[C@H](C(=O)N[C@H](CC(C)C)C(=O)N[C@@H](CC(=O)O)C(=O)N[C@H](CC(C)C)C(=O)O)C(C)C` [SLP5] (Palmitoyl-EV[dL]D[dL]-OH), the “Selectivity index / safe and effective concentration range relative to surfactin” value was 13 times. `CCCCCCCCCCCCCCCC(=O)N[C@@H](CCC(=O)O)C(=O)N[C@H](C(=O)N[C@H](CC(C)C)C(=O)N[C@H](CC(C)C)C(=O)N[C@@H](CC(=O)O)C(N)=O)C(C)C` [SLP8] (Palmitoyl-EV[dL][dL]D-NH2): the “Selectivity index / safe and effective concentration range relative to surfactin” value stood at 21 times.
